Data from PMC9962204.
These are yes or no findings as the source states them, for the method shown. Some entries that bind do so weakly or less than the wild type. Tags and fused reporters may be left off the sequences shown. Each block holds one binder with its values, some of them ahead of it.

Molecular target: T1, AtSAH7 (allergen, Ole e 1 domain-containing family), Gal4 DNA-binding domain fusion in pGBKT7 (Arabidopsis thaliana) (UniProt Q9SZY5)
T1 sequence: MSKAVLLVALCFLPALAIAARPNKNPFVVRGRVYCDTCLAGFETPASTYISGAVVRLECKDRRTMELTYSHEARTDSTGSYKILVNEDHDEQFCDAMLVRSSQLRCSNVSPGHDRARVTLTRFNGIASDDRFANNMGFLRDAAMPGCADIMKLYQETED
Experiment: two-hybrid; AtSAH7 in pGBKT7 (BD) against AtSBP1, AtSBP2, AtSBP3 and AtSBP1 deletions in pGADT7 (AD); S. cerevisiae Y2H Gold, co-transformed; growth on SD-Leu-Trp-His-Ade; more than 5 independent colonies

binding: no binding
B1: Selenium-binding protein 2 (AtSBP2), Gal4 activation domain fusion in pGADT7 (protein, UniProt Q93WN0 1-487)
chain: MATETVLATAVSNGKSKGCCKSGPGYATPLAAMAGPREKLIYVTALYSGTGRDKPDYLATVDVDPSSPTFSSVIHRLKMPYIGDELHHTGWNSCSSCHGDASADRRYLVLPGLISGRIYAIDTKTDPKAPSLYKVVEPKEIAEKTGLAFPHTSHCLASGDMLVSCLGDKEGNAKGNGFLLLDSDFNVKSRWDKPGHGPLFGYDFWYQPRFKTMISTSWGAPKAFSKGFNLQHVADGLYGSHLHIYQWPEGEMKQIIDLGNTGLLPLEIRFLHDPSKDTGYVGSALSSNMIRFFKNSDDTWSHEVVISVKPLKVENWILPEMPGLITDFLISLDDRFFYFVNWLHGDIRQYNIEDPKNPVLTGQIWVGGLLQKGSPYKAVGEDGNTYQFDVPQIKGKSLRAGPQMIQLSLDGKRLYATNSLFSAWDRQFYPEIMEKGSHIIQIDVDTDKGGLTLNPDFFVDFGDEPDGPALAHEMRYPGGDCTSDIWI

binding: binds
B2: Selenium-binding protein 1 (AtSBP1), Gal4 activation domain fusion in pGADT7 (protein, UniProt O23264 1-490)
chain: MATETEVVAPVTVSNGGSKGCCKYGGPGYATPLAAMSGPSEKLIYVTAVYTGTGIDKPDYLATVDVDPSSPSYSSVIHRLPMPFVGDELHHSGWNSCSSCHGDASVDRRYLVLPSLISGRIYAIDTKENPRAPSLYKYVDPKEIADKTGLAFPHTAHCLATGEILVSCLGDEEGNAKGNGFLLLDSDFNIKNRWEKPGHSPLYGYDFWYQPRHKTMISTSWGAPKAFSKGFNLQHVADGLYGSHLHVYSWPGGEIKQLIDLGPTGLLPLEIRFLHDPSKDTGFVGSALSSNMIRFFKNSDETWSHEVVISVKPLKVENWILPEMPGLITDFLISLDDRFIYFVNWLHGDIRQYNIEDPKNPVLTGQIWVGGLLQKGSPVKAVGEDGNTFQFEVPQIKGKSLRGGPQMIQLSLDGKRLYATNSLFSAWDRQFYPEIMEKGSHIIQIDVDTEKGGLTINPDFFVDFGDEPDGPSLAHEMRYPGGDCTSDIWI

binding: no binding
B3: Selenium-binding protein 3 (AtSBP3), Gal4 activation domain fusion in pGADT7 (protein, UniProt Q9LK38 1-480)
chain: MEAAMNNHDGDCCKSGPGYATPLLAMSGPREKLIYVAAIYTGTGQAKPDYLATVDVEPSSSTYSSVIHRLPMPYLEDELHHSGWNSCSSCYGDSSCERRYLILPSLLSGRIYVIDTKTNPREPSLHKFVDPAEVLEKTGLAYPHQPHCLASGDVLVSCLGDEDGNAEGSGFLLLDSEFNIKGRWEKDGNSPLYGYDFWYQPRHKTMISTSWGAPAAFTKGFDLKDVSDGLYGKHLHVYSWPQGELKQILDLGDTGLLPLEVRFLHEPDKATGFAGCALSSTLVRFFKNDDETWSHEVAISVEPLKVENWILPEMPGLITDFLISLDDRFLYCSNWLHGDIRQYNIEDPKTPVLTGQIHVGGLVQKGSLVLALGEEGKAFQFDVPKIKGQRLRGGPQMFQLSLDGKRLYVTNSLFSVWDRQFYPELVEKGSHMLQIDVDTDKGGLSINPNFFVDFGTEPDGPSLAHEMRYPGGDCTSDIWV
